Data published in ChEMBL document CHEMBL5674883, “The Heterochromatin Landscape in Migrating Cells and the Importance of H3K27me3 for Associated Transcriptome Alterations” (Cells, 2018).
This continues a long series; more values of the same kind are listed elsewhere.

The chains behind the UniProt entries cited, without tags or fusion partners.
UniProt Q61188, whole entry: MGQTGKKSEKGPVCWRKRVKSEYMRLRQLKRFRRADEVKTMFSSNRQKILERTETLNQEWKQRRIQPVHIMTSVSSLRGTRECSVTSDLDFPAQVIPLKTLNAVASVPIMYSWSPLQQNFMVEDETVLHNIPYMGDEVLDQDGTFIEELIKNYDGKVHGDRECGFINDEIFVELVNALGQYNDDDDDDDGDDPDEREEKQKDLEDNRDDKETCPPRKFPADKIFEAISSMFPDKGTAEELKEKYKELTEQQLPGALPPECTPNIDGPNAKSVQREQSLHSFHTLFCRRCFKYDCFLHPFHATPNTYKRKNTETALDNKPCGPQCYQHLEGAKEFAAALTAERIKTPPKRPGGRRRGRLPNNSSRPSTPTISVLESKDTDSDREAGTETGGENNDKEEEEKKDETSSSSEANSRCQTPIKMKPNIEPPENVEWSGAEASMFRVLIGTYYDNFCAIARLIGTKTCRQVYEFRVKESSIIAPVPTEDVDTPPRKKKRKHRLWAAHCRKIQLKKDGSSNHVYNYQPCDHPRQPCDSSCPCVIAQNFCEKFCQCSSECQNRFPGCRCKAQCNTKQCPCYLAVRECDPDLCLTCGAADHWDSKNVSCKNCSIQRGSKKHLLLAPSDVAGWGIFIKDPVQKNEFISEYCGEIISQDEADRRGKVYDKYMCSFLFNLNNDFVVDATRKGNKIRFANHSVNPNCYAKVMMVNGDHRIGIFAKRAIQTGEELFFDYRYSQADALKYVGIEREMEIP

Columns and labels:
Type in all cases: cell-based
[1] = target: T1, RNA polymerase II (Mus musculus) (UniProt P08775+Q8CFI7+P97760+A0A3Q4L2S8+Q80UW8+P61219+P62488+Q923G2+P60898+O08740+Q63871+P62876); experiment: Inhibition of RNA polymerase II in mouse B16-F1 migrating cells assessed as fold change in Cadm1-RNA stability at 0.1 mM measured by ChIP-seq analysis relative to control cells
[2] = target: T1, RNA polymerase II (Mus musculus); experiment: Inhibition of RNA polymerase II in mouse B16-F1 migrating cells assessed as fold change in 0610012G03Rik-RNA stability at 0.1 mM measured by ChIP-seq analysis relative to control cells
[3] = target: T1, RNA polymerase II (Mus musculus); experiment: Inhibition of RNA polymerase II in mouse B16-F1 migrating cells assessed as fold change in Rnf181-RNA stability at 0.1 mM measured by ChIP-seq analysis relative to control cells
[4] = target: T1, RNA polymerase II (Mus musculus); experiment: Inhibition of RNA polymerase II in mouse B16-F1 migrating cells assessed as fold change in Ift80-RNA stability at 0.1 mM measured by ChIP-seq analysis relative to control cells
[5] = target: T1, RNA polymerase II (Mus musculus); experiment: Inhibition of RNA polymerase II in mouse B16-F1 migrating cells assessed as fold change in Hnrnpm-RNA stability at 0.1 mM measured by ChIP-seq analysis relative to control cells
[6] = target: T1, RNA polymerase II (Mus musculus); experiment: Inhibition of RNA polymerase II in mouse B16-F1 migrating cells assessed as fold change in Topbp1-RNA stability at 0.1 mM measured by ChIP-seq analysis relative to control cells
[7] = target: T1, RNA polymerase II (Mus musculus); experiment: Inhibition of RNA polymerase II in mouse B16-F1 migrating cells assessed as fold change in Hnrnpa2b1-RNA stability at 0.1 mM measured by ChIP-seq analysis relative to control cells
[8] = target: T1, RNA polymerase II (Mus musculus); experiment: Inhibition of RNA polymerase II in mouse B16-F1 migrating cells assessed as fold change in Socs6-RNA stability at 0.1 mM measured by ChIP-seq analysis relative to control cells
[9] = target: T1, RNA polymerase II (Mus musculus); experiment: Inhibition of RNA polymerase II in mouse B16-F1 migrating cells assessed as fold change in Acsl4-RNA stability at 0.1 mM measured by ChIP-seq analysis relative to control cells
[10] = target: T1, RNA polymerase II (Mus musculus); experiment: Inhibition of RNA polymerase II in mouse B16-F1 migrating cells assessed as fold change in Csnk2a1-RNA stability at 0.1 mM measured by ChIP-seq analysis relative to control cells
[11] = target: T1, RNA polymerase II (Mus musculus); experiment: Inhibition of RNA polymerase II in mouse B16-F1 migrating cells assessed as fold change in Hccs-RNA stability at 0.1 mM measured by ChIP-seq analysis relative to control cells
[12] = target: T1, RNA polymerase II (Mus musculus); experiment: Inhibition of RNA polymerase II in mouse B16-F1 migrating cells assessed as fold change in Bub1-RNA stability at 0.1 mM measured by ChIP-seq analysis relative to control cells
[13] = target: T1, RNA polymerase II (Mus musculus); experiment: Inhibition of RNA polymerase II in mouse B16-F1 migrating cells assessed as fold change in Gcc2-RNA stability at 0.1 mM measured by ChIP-seq analysis relative to control cells
[14] = target: T1, RNA polymerase II (Mus musculus); experiment: Inhibition of RNA polymerase II in mouse B16-F1 migrating cells assessed as fold change in Pih1d1-RNA stability at 0.1 mM measured by ChIP-seq analysis relative to control cells
[15] = target: T1, RNA polymerase II (Mus musculus); experiment: Inhibition of RNA polymerase II in mouse B16-F1 migrating cells assessed as fold change in Metap2-RNA stability at 0.1 mM measured by ChIP-seq analysis relative to control cells
[16] = target: T1, RNA polymerase II (Mus musculus); experiment: Inhibition of RNA polymerase II in mouse B16-F1 migrating cells assessed as fold change in Pus10-RNA stability at 0.1 mM measured by ChIP-seq analysis relative to control cells
[17] = target: T1, RNA polymerase II (Mus musculus); experiment: Inhibition of RNA polymerase II in mouse B16-F1 migrating cells assessed as fold change in Bmpr1a-RNA stability at 0.1 mM measured by ChIP-seq analysis relative to control cells
[18] = target: T1, RNA polymerase II (Mus musculus); experiment: Inhibition of RNA polymerase II in mouse B16-F1 migrating cells assessed as fold change in Unc13a-RNA stability at 0.1 mM measured by ChIP-seq analysis relative to control cells
[19] = target: T1, RNA polymerase II (Mus musculus); experiment: Inhibition of RNA polymerase II in mouse B16-F1 migrating cells assessed as fold change in Naxe-RNA stability at 0.1 mM measured by ChIP-seq analysis relative to control cells
[20] = target: Histone-lysine N-methyltransferase EZH2 (Mus musculus) (UniProt Q61188); experiment: Inhibition of EZH2 in mouse B16-F1 migrating cells assessed as fold change in H3K27me3-buffered regulated 1810026B05Rik-mRNA expression at 3 uM measured by ChIP-seq analysis relative to control cells
[21] = target: Histone-lysine N-methyltransferase EZH2 (Mus musculus) (UniProt Q61188); experiment: Inhibition of EZH2 in mouse B16-F1 migrating cells assessed as fold change in H3K27me3-buffered regulated Dzip1l-mRNA expression at 3 uM measured by ChIP-seq analysis relative to control cells
[22] = target: Histone-lysine N-methyltransferase EZH2 (Mus musculus) (UniProt Q61188); experiment: Inhibition of EZH2 in mouse B16-F1 migrating cells assessed as fold change in H3K27me3-independent regulated Psrc1-mRNA expression at 3 uM measured by ChIP-seq analysis relative to control cells
[23] = target: Histone-lysine N-methyltransferase EZH2 (Mus musculus) (UniProt Q61188); experiment: Inhibition of EZH2 in mouse B16-F1 migrating cells assessed as fold change in H3K27me3-buffered regulated Cxcl10-mRNA expression at 3 uM measured by ChIP-seq analysis relative to control cells
[24] = target: Histone-lysine N-methyltransferase EZH2 (Mus musculus) (UniProt Q61188); experiment: Inhibition of EZH2 in mouse B16-F1 migrating cells assessed as fold change in H3K27me3-buffered regulated 4933415A04Rik-mRNA expression at 3 uM measured by ChIP-seq analysis relative to control cells
[25] = target: Histone-lysine N-methyltransferase EZH2 (Mus musculus) (UniProt Q61188); experiment: Inhibition of EZH2 in mouse B16-F1 migrating cells assessed as fold change in H3K27me3-independent regulated Edil3-mRNA expression at 3 uM measured by ChIP-seq analysis relative to control cells
[26] = target: Histone-lysine N-methyltransferase EZH2 (Mus musculus) (UniProt Q61188); experiment: Inhibition of EZH2 in mouse B16-F1 migrating cells assessed as fold change in H3K27me3-buffered regulated Mb21d1-mRNA expression at 3 uM measured by ChIP-seq analysis relative to control cells
[27] = target: Histone-lysine N-methyltransferase EZH2 (Mus musculus) (UniProt Q61188); experiment: Inhibition of EZH2 in mouse B16-F1 migrating cells assessed as fold change in H3K27me3-independent regulated Phldb3-mRNA expression at 3 uM measured by ChIP-seq analysis relative to control cells
[28] = target: Histone-lysine N-methyltransferase EZH2 (Mus musculus) (UniProt Q61188); experiment: Inhibition of EZH2 in mouse B16-F1 migrating cells assessed as fold change in H3K27me3-dependent regulated Serpine1-mRNA expression at 3 uM measured by ChIP-seq analysis relative to control cells
[29] = target: Histone-lysine N-methyltransferase EZH2 (Mus musculus) (UniProt Q61188); experiment: Inhibition of EZH2 in mouse B16-F1 migrating cells assessed as fold change in H3K27me3-buffered regulated Kcnk5-mRNA expression at 3 uM measured by ChIP-seq analysis relative to control cells
[30] = target: Histone-lysine N-methyltransferase EZH2 (Mus musculus) (UniProt Q61188); experiment: Inhibition of EZH2 in mouse B16-F1 migrating cells assessed as fold change in H3K27me3-buffered regulated Kif11-mRNA expression at 3 uM measured by ChIP-seq analysis relative to control cells

`OC[C@H]1O[C@@H](n2cnc3cc(Cl)c(Cl)cc32)[C@H](O)[C@@H]1O` gave a log2FC [1] of -0.41, a log2FC [2] of 0.65 and a log2FC [3] of 0.5. It also gave a log2FC [4] of -0.66, a log2FC [5] of -0.52 and a log2FC [6] of -0.43. It also gave a log2FC [7] of -0.48, a log2FC [8] of -0.58 and a log2FC [9] of -0.51. It also gave a log2FC [10] of -0.48, a log2FC [11] of -0.58 and a log2FC [12] of -0.55. It also gave a log2FC [13] of -0.66, a log2FC [14] of 0.44 and a log2FC [15] of -0.39. It also gave a log2FC [16] of -0.54, a log2FC [17] of -0.49 and a log2FC [18] of 0.93. The log2FC [19] was 0.5.
Molecule `CCCc1cc(C)[nH]c(=O)c1CNC(=O)c1cc(-c2ccnc(N3CCN(C)CC3)c2)cc2c1cnn2C(C)C` has a log2FC [20] of -0.96, a log2FC [21] of -0.66 and a log2FC [22] of -0.56. It also gave a log2FC [23] of -0.97, a log2FC [24] of -0.89 and a log2FC [25] of 0.52. It also gave a log2FC [26] of -0.47, a log2FC [27] of 0.63 and a log2FC [28] of 0.39. For the same molecule, the log2FC [29] was 0.54 and the log2FC [30] was -0.43.
